# Results from one PubChem assay

Data taken from PubChem BioAssay AID743020, deposited by Broad Institute (2013).

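A counterscreen of light output from a stable CMV-driven luciferase line in HEK293 cells, measured one day after compound addition. Percent change in reporter signal versus neutral control wells at the top tested concentration; more negative values mean stronger inhibition. Inconclusive means the independent runs disagreed, the fit was flat at 30 to 70% inhibition, or the curve fit was poor.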

Values are in %. Every entry below has the call inconclusive. Only part of the assay is shown, chiefly results filed as inconclusive.

SMILES	tested on / at	activity change (%)
O=C(C1CC1)N1C[C@@H]2N[C@H](C1)[C@@H]2c1ccc(-c2ccncc2)cc1	at 35 µM (top of the series)	-61.5
CCOc1ccc(C(=O)O/N=C(\N)c2ccccn2)cc1	at 35 µM (top of the series)	-67.78
CC(C)CC#Cc1ccc2c(c1)O[C@H](CN(C)Cc1ccc(F)cc1)[C@H](C)CN([C@H](C)CO)S2(=O)=O	at 35 µM (top of the series)	-0.895
O=C(/C=C/c1c(Cl)nc2ccccn12)Nc1ccc(F)cc1	at 35 µM (top of the series)	7.881
Cc1cccc(C)c1NS(=O)(=O)c1ccc(-c2cnc(C3CC3)o2)cc1	at 35 µM (top of the series)	-39.97
Cc1nn(-c2ccccc2)c(Cl)c1CN(C(=O)CCl)c1ccc(Cl)cc1	at 35 µM (top of the series)	-88.19
C=C1C(C)C2C(Cc3ccccc3)NC(=O)C23OC(=O)/C=C/C(O)CCCC(C)C/C=C/C3C1O (stereo not given)	at 35 µM (top of the series)	-53.98
C[C@@H]1CCCCO[C@H](CN(C)Cc2ccc(Cl)c(Cl)c2)[C@@H](C)CN([C@@H](C)CO)C(=O)c2cc(NS(=O)(=O)c3ccccc3)ccc2O1	at 35 µM (top of the series)	-55.39
COc1ccc(NC(=O)c2cc([N+](=O)[O-])ccc2O)cc1	at 35 µM (top of the series)	-29.14
CCCCC(=O)NC(c1ccccc1OC)c1ccc2cccnc2c1O (stereo not given)	at 35 µM (top of the series)	-27.75
COc1cc(C=C2C(=O)C=CC2=O)ccc1O	at 35 µM (top of the series)	-44.84
COc1ccc(-c2cc(CNc3nc(NC(C)C)nc4cc(-c5ccccc5)sc34)on2)cc1	at 35 µM (top of the series)	66.85